{
  "source": "PubChem BioAssay AID504444",
  "about": "(National Center for Advancing Translational Sciences (NCATS), 2011)",
  "note": "About 7,500 (2.1%) of roughly 360,000 compounds were called active. Inconclusive results, whose numbers are uncertain, are shown with a selection of clear calls. The call rests on the fitted dose curve; in most records, active means well fitted inhibition curve with a large enough effect; inconclusive means small, poorly fitted or top-dose-only effect, or effect the other way; inactive means flat fitted curve, though single readings scatter. A potency beside an inconclusive call is a rough fit, not a confirmed value. Potency means the concentration at half of the fitted maximal effect.",
  "data": [
    {"assay": "Nrf2 qHTS screen for inhibitors; further: nearly all actives have a fitted effect of over 60% in size", "conditions": "A549 ARE-Fluc reporter, luciferase luminescence, 18-24 h; series mostly up to 46 µM", "outline": "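Two sequential reads on A549 ARE_Fluc cells exposed to compound for 18-24 h: a CellTiter-Fluor fluorescence read for viability, then a luciferase luminescence read for Nrf2/ARE activity.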", "values": [
      {"smiles": "Cc1cc(Cn2nc(-c3ccccc3C)cc2C(=O)O)on1", "Potency": "inactive"},
      {"smiles": "O=C(CSc1cn(CC(=O)N2CCCCC2)c2ccccc12)NCc1ccccc1", "Potency": "inactive"},
      {"smiles": "O=C(c1ccc2nc(N3CCCCC3)sc2c1)N1CCN(Cc2ccc3c(c2)OCO3)CC1", "Potency": "inconclusive: 32.6 µM [falling, single point]"},
      {"smiles": "CCOc1ccc(-c2nnc(SCC(=O)NCc3ccccc3Cl)o2)cc1", "Potency": "inconclusive: 18.4 µM [activator, partial curve]"},
      {"smiles": "CCOC(=O)c1ccc(NC(=O)c2ccc(CN3CCOCC3)cc2)cc1", "Potency": "active: 5.17 µM"},
      {"smiles": "O=C(Nc1nccs1)c1cc2sccc2n1Cc1ccc(Cl)cc1", "Potency": "inconclusive: 29.1 µM [falling, partial curve, poor fit]"},
      {"smiles": "CSC1=NC(C)(C)C=C(/C=C/c2ccc(Cl)cc2)N1", "Potency": "inactive"},
      {"smiles": "COc1cccc(Cn2c(=O)n(-c3cccc(Cl)c3)c(=O)c3c4c(sc32)CN(C(C)=O)CC4)c1", "Potency": "inconclusive: 32.6 µM [falling, single point]"},
      {"smiles": "N/C(=N\\OC(=O)CC1CCCCC1)c1ccncc1", "Potency": "inconclusive: 11.6 µM [activator, partial curve, poor fit]"},
      {"smiles": "CCOc1cc(OCC)cc(C(=O)Nc2cccc(-c3nc4ccccc4[nH]3)c2)c1", "Potency": "inconclusive: 16.4 µM [falling, single point]"},
      {"smiles": "CCOc1ccc(NC(=O)CN2CCN(S(=O)(=O)c3ccc(OC)cc3)CC2)cc1", "Potency": "inactive"},
      {"smiles": "Cc1ccc(NC(=O)c2cc(N3CCOCC3)nc3ccccc23)cc1", "Potency": "inactive"},
      {"smiles": "CCN(CC)c1ccc(C2N(C(=O)N3CCOCC3)CCN2S(=O)(=O)c2ccc(C)cc2)cc1", "note": "(centres undefined)", "Potency": "inconclusive: 2.31 µM [falling, full curve, poor fit]"},
      {"smiles": "CCC1(C)NC(=O)N(/N=C/c2ccc(C)s2)C1=O", "note": "(centres undefined)", "Potency": "inconclusive: 23.1 µM [activator, single point]"},
      {"smiles": "O=C(Nc1ccc(N2CCCCC2)cc1)C(Cl)c1ccccc1", "note": "(centres undefined)", "Potency": "inconclusive: 10.3 µM [activator, partial curve]"},
      {"smiles": "CCOC(=O)/C=C/[C@H]1CC(c2ccccc2)(c2ccccc2)CO1", "Potency": "inactive"},
      {"smiles": "COc1ccc(Cl)cc1C(=O)NCc1ccco1", "Potency": "inconclusive: 4.61 µM [falling, full curve, poor fit]"},
      {"smiles": "COc1ccc(C(=O)NNC(=O)OC(C)(C)C)cc1", "Potency": "inactive"},
      {"smiles": "CCCNC(=O)c1ccc(N2CCC3(CC2)CC(c2ccc(Cl)cc2)=NO3)c([N+](=O)[O-])c1", "Potency": "active: 23.1 µM"},
      {"smiles": "O=C(COc1ccccc1)Nc1ccc(F)cc1", "Potency": "inconclusive: 16.4 µM [activator, partial curve]"},
      {"smiles": "COc1ccc(S(=O)(=O)N2CCC(NC(=O)C(Cc3cccc(OC)c3OC)NC(C)=O)CC2)cc1", "note": "(centres undefined)", "Potency": "inconclusive: 0.291 µM [activator, full curve, poor fit]"},
      {"smiles": "CCc1cc2c(=O)[nH]c(CC(N)=O)nc2s1", "Potency": "inactive"},
      {"smiles": "CCOC(=O)N1CCN(C(=O)C2CCN(c3ncnc4c3sc3cccc(F)c34)CC2)CC1", "Potency": "inconclusive: 29.1 µM [falling, single point]"},
      {"smiles": "O=C(Nc1cccc(S(=O)(=O)N2CCCCC2)c1)c1ccc2c(c1)OCO2", "Potency": "inconclusive: 29.1 µM [falling, single point]"},
      {"smiles": "Cc1ccc(-c2onc(C)c2C)cc1S(=O)(=O)NCc1ccc(N(C)C)cc1", "Potency": "inconclusive: 29.1 µM [falling, single point]"},
      {"smiles": "COc1ccc(-c2ccc(Nc3ccc(C(=O)N4CCOCC4)cc3)nn2)cc1OC", "Potency": "inconclusive: 23.1 µM [falling, partial curve, poor fit]"},
      {"smiles": "COc1c(Cl)cnn(-c2ccc(Cl)c(Cl)c2)c1=O", "Potency": "inconclusive: 20.6 µM [activator, partial curve, poor fit]"},
      {"smiles": "COc1ccc(S(=O)(=O)n2nc(OC(=O)c3ccccc3)cc2N)cc1", "Potency": "inactive"},
      {"smiles": "Nc1nc2c(s1)CCc1c-2cnn1-c1ccccc1", "Potency": "inconclusive: 2.91 µM [activator, full curve]"},
      {"smiles": "CN(C)S(=O)(=O)c1ccc(NC(=O)c2ccc(Br)o2)cc1", "Potency": "inactive"},
      {"smiles": "O=[N+]([O-])c1ccc(NNC(=S)Nc2ccccc2)cc1", "Potency": "inconclusive: 35.5 µM [falling, single point]"},
      {"smiles": "Cc1csc(NC(=O)c2c(O)c3c(n(CC(C)C)c2=O)CCCC3)n1", "Potency": "inconclusive: 29.1 µM [falling, single point]"},
      {"smiles": "Cc1ccc(NC(=O)Cc2ccccc2)cc1S(=O)(=O)N1CCOCC1", "Potency": "inactive"},
      {"smiles": "Cc1ccc(N=Nc2c(O)[nH]c3ccc(F)cc23)cc1", "Potency": "inconclusive: 5.8 µM [activator, full curve]"},
      {"smiles": "COC(=O)C1=C(C)n2nnnc2NC1c1cc2ccccc2o1", "note": "(centres undefined)", "Potency": "inconclusive: 25.9 µM [falling, partial curve, poor fit]"},
      {"smiles": "Cn1cc(CN(CCCN2CCOCC2)C(=S)Nc2cccc(Cl)c2)c2ccccc21", "Potency": "inconclusive: 23.1 µM [falling, partial curve, poor fit]"},
      {"smiles": "CS(=O)(=O)c1ccc(C(=O)OCC(=O)N2CC(=O)Nc3ccccc32)cc1[N+](=O)[O-]", "Potency": "inactive"},
      {"smiles": "CCC(C(=O)Nc1cccc(S(=O)(=O)N(C)c2ccccc2)c1)c1ccccc1", "note": "(centres undefined)", "Potency": "inconclusive: 29.1 µM [falling, single point]"},
      {"smiles": "O=C(NCCOc1ccccc1)c1ccc2c(c1)OCO2", "Potency": "inconclusive: 11.6 µM [falling, single point]"},
      {"smiles": "O=C(NCCN1CCN(c2cccc(Cl)c2)CC1)c1ccc(CSc2nc3ccncc3[nH]2)cc1", "Potency": "inconclusive: 20.6 µM [falling, single point]"},
      {"smiles": "O=C(CCCN1C(=O)/C(=C\\c2ccccc2)SC1=S)N1CCOCC1", "Potency": "inconclusive: 20.6 µM [activator, single point]"},
      {"smiles": "O=C(CSc1ccccn1)N1CCOCC1", "Potency": "inconclusive: 4.11 µM [activator, partial curve, poor fit]"},
      {"smiles": "Cc1c2cnn(CC(=O)N3CCN(c4ccccc4)CC3)c(=O)c2c(C)n1Cc1ccccc1Cl", "Potency": "inconclusive: 5.17 µM [activator, partial curve, poor fit]"},
      {"smiles": "COc1ccc(C(=O)NC(=S)NCc2ccc(-c3nc4ccccc4o3)cc2)cc1OC", "Potency": "inconclusive: 5.17 µM [falling, partial curve]"}
    ]}
  ]
}
